No constants are given. Whether binding was seen depends on the method and setting. Some binding calls cover weakened binding; strength is not graded here.
B1: 69F2F3 (murine hybridoma antibody) (antibody, V domains shown)
VH: QVQLKQSGPGLVQPSQSLSITCTVSGFSLSNYGVHWVRQSPGKGLEWLGVIWSGGSTDYNAAFKSRLSITKDNSKSQVVFRMNSLQTDDTATYYCARNKDFLDYWGQGTKFTVSS
VL: DIVMTQSPSSLTVTAGEKVTMTCKSSQGLLNSGNQKNYLTWYQQKPGQPPKLLIYWASTRESGVPDRFTGSGSGTDFTLTISSVQAEDLAVYYCQNDYHFPLTFGAGTKLELK
B2: 102A2E11B6 (murine hybridoma antibody) (antibody, V domains shown)
VH: QVQLRQSGPGLVQPSQSLSITCTVSGFSLTSYGVHWVRQSPGKGLEWLGVIWSGGSTDYNAVFMSRLSISKDSSKSQVFFKMNSLQTDDTAIYYCARNRYVLDYWGQGTSVTVSS
VL: DIVMTQSPSSLSVSAGERVTMRCKSSQSLLTSGDQKNHLAWYQQKPGQPPKLLIYGASTRESGVPDRFTGSGSGTDFTLTITSVQAEDLAVYYCQNDHSFPLTFGAGTKLELK
B3: 154F10G8 (murine hybridoma antibody) (antibody, V domains shown)
VH: QVQLQQPGAELVKPGASVKLSCKASGYTFTSYWITWVKQRPGQGLEWIGDIYPGSGSTFYNEKFKSEATLTVDTSSSTAYMQLSSLTSEDSAVFYCSTETTLGYWGQGTTLTVSS
VL: DVLMTQTPLSLPVSLGDQASISCRSSQSIVHNNGNTYLEWYLQKPGQSPKLLIYKVSNRFSGVPDRFSGSGSGTDFTLKISRVEAEDLGVYYCFQGSHVPFTFGSGTKLEIK
B4: 69F2F3 mouse-human chimeric antibody (antibody, human IgG4, V domains shown)
VH: B1 VH
VL: B1 VL
B5: 102A2E11B6 mouse-human chimeric antibody (antibody, human IgG4, V domains shown)
VH: B2 VH
VL: B2 VL
B6: 154F10G8 mouse-human chimeric antibody (antibody, human IgG4, V domains shown)
VH: B3 VH
VL: B3 VL

Target: T1, mouse IL-5 (mouse) (UniProt P04401)
T1 sequence (looked up): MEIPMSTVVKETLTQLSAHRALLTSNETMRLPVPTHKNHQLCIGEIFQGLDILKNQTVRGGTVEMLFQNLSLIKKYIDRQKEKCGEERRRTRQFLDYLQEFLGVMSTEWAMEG
Assay: ELISA

| binding | Binder |
| --- | --- |
| binds | B1 |
| binds | B2 |
| binds | B3 |
| binds | B4 |
| binds | B5 |
| binds | B6 |

From US20220010008A1
